{"source": "PubChem BioAssay AID493246 (Drosophila RNAi Screening Center, 2011)", "screen": "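Genes fly cells need to grow and stay alive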 (primary screen)", "system": "Drosophila Kc and S2R+ cells", "reagents": "long dsRNA against Drosophila genes", "detection": "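Cell number per well after knock-down, printed as raw plate values; calls were based on per-plate z-scores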", "scale": "Kc cell number and S2R+ cell number: higher = more cells remaining", "hit rule": "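Counted as a hit if cell number falls by a z-score of at least 3 within its plate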", "note": "In all, the deposit lists about 21,000 reagents; this is an unselected part of those that have a named target and a result. Over the whole deposit, 429 (2%) are marked active. 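Values are raw and not normalised between plates; calls rest on per-plate z-scores that were not deposited.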 Unmarked entries are inactive. Reagents against one gene are numbered here. The record does not give: the amount of reagent, the time to read-out."}
{"gene": "Ak2 (GeneID 37834)", "reagent no.": 1, "Kc cell number, rep 1": 1.32e6, "Kc cell number, rep 2": 1.32e6, "S2R+ cell number, rep 1": 1.18e6, "S2R+ cell number, rep 2": 1.25e6}
{"gene": "Ranbp21 (GeneID 32970)", "reagent no.": 1, "Kc cell number, rep 1": 1.44e6, "Kc cell number, rep 2": 1.52e6, "S2R+ cell number, rep 1": 1.04e6, "S2R+ cell number, rep 2": 1.13e6}
{"gene": "CG31638 (GeneID 33910)", "reagent no.": 1, "Kc cell number, rep 1": 1.55e6, "Kc cell number, rep 2": 1.41e6, "S2R+ cell number, rep 1": 1.17e6, "S2R+ cell number, rep 2": 1.32e6}
{"gene": "CG31638 (GeneID 33910)", "reagent no.": 2, "Kc cell number, rep 1": 1.48e6, "Kc cell number, rep 2": 1.36e6, "S2R+ cell number, rep 1": 1.18e6, "S2R+ cell number, rep 2": 1.34e6}
{"gene": "Kr (GeneID 38012)", "reagent no.": 1, "Kc cell number, rep 1": 1.68e6, "Kc cell number, rep 2": 1.56e6, "S2R+ cell number, rep 1": 1.37e6, "S2R+ cell number, rep 2": 1.47e6}
{"gene": "Gmap (GeneID 32483)", "reagent no.": 1, "Kc cell number, rep 1": 6.44e5, "S2R+ cell number, rep 1": 9.02e5}
{"gene": "Gmap (GeneID 32483)", "reagent no.": 2, "Kc cell number, rep 1": 1.51e6, "Kc cell number, rep 2": 1.52e6, "S2R+ cell number, rep 1": 1.09e6, "S2R+ cell number, rep 2": 1.21e6}
{"gene": "CG9072 (GeneID 32443)", "reagent no.": 1, "Kc cell number, rep 1": 1.53e6, "Kc cell number, rep 2": 1.51e6, "S2R+ cell number, rep 1": 1.12e6, "S2R+ cell number, rep 2": 1.24e6}
{"gene": "rk (GeneID 34819)", "reagent no.": 1, "Kc cell number, rep 1": 1.53e6, "Kc cell number, rep 2": 1.57e6, "S2R+ cell number, rep 1": 1.23e6, "S2R+ cell number, rep 2": 1.37e6}
{"gene": "neb (GeneID 35293)", "reagent no.": 1, "Kc cell number, rep 1": 1.29e6, "Kc cell number, rep 2": 1.47e6, "S2R+ cell number, rep 1": 1.20e6, "S2R+ cell number, rep 2": 9.53e5}
{"gene": "CG17724 (GeneID 246682)", "reagent no.": 1, "Kc cell number, rep 1": 1.35e6, "Kc cell number, rep 2": 1.32e6, "S2R+ cell number, rep 1": 1.02e6, "S2R+ cell number, rep 2": 8.28e5}
{"gene": "Octbeta3R (GeneID 3885573)", "reagent no.": 1, "Kc cell number, rep 1": 1.41e6, "Kc cell number, rep 2": 1.46e6, "S2R+ cell number, rep 1": 1.31e6, "S2R+ cell number, rep 2": 1.36e6}
{"gene": "Octbeta3R (GeneID 3885573)", "reagent no.": 2, "Kc cell number, rep 1": 1.54e6, "Kc cell number, rep 2": 1.57e6, "S2R+ cell number, rep 1": 1.21e6, "S2R+ cell number, rep 2": 1.26e6}

Records above whose target name begins with O or o (2):
{"gene": "Octbeta3R (GeneID 3885573)", "reagent no.": 1, "Kc cell number, rep 1": 1.41e6, "Kc cell number, rep 2": 1.46e6, "S2R+ cell number, rep 1": 1.31e6, "S2R+ cell number, rep 2": 1.36e6}
{"gene": "Octbeta3R (GeneID 3885573)", "reagent no.": 2, "Kc cell number, rep 1": 1.54e6, "Kc cell number, rep 2": 1.57e6, "S2R+ cell number, rep 1": 1.21e6, "S2R+ cell number, rep 2": 1.26e6}
